Assay results: PMC4669821
These are yes or no findings as the source states them, for the method shown. Binding seen in cells or lysates may run through a third protein. Some entries that bind do so weakly or less than the wild type. For some assays here: Tags and fused reporters may be left off the sequences shown.

Chains of the proteins cited; added tags and fusions are not shown.
UniProt Q09472: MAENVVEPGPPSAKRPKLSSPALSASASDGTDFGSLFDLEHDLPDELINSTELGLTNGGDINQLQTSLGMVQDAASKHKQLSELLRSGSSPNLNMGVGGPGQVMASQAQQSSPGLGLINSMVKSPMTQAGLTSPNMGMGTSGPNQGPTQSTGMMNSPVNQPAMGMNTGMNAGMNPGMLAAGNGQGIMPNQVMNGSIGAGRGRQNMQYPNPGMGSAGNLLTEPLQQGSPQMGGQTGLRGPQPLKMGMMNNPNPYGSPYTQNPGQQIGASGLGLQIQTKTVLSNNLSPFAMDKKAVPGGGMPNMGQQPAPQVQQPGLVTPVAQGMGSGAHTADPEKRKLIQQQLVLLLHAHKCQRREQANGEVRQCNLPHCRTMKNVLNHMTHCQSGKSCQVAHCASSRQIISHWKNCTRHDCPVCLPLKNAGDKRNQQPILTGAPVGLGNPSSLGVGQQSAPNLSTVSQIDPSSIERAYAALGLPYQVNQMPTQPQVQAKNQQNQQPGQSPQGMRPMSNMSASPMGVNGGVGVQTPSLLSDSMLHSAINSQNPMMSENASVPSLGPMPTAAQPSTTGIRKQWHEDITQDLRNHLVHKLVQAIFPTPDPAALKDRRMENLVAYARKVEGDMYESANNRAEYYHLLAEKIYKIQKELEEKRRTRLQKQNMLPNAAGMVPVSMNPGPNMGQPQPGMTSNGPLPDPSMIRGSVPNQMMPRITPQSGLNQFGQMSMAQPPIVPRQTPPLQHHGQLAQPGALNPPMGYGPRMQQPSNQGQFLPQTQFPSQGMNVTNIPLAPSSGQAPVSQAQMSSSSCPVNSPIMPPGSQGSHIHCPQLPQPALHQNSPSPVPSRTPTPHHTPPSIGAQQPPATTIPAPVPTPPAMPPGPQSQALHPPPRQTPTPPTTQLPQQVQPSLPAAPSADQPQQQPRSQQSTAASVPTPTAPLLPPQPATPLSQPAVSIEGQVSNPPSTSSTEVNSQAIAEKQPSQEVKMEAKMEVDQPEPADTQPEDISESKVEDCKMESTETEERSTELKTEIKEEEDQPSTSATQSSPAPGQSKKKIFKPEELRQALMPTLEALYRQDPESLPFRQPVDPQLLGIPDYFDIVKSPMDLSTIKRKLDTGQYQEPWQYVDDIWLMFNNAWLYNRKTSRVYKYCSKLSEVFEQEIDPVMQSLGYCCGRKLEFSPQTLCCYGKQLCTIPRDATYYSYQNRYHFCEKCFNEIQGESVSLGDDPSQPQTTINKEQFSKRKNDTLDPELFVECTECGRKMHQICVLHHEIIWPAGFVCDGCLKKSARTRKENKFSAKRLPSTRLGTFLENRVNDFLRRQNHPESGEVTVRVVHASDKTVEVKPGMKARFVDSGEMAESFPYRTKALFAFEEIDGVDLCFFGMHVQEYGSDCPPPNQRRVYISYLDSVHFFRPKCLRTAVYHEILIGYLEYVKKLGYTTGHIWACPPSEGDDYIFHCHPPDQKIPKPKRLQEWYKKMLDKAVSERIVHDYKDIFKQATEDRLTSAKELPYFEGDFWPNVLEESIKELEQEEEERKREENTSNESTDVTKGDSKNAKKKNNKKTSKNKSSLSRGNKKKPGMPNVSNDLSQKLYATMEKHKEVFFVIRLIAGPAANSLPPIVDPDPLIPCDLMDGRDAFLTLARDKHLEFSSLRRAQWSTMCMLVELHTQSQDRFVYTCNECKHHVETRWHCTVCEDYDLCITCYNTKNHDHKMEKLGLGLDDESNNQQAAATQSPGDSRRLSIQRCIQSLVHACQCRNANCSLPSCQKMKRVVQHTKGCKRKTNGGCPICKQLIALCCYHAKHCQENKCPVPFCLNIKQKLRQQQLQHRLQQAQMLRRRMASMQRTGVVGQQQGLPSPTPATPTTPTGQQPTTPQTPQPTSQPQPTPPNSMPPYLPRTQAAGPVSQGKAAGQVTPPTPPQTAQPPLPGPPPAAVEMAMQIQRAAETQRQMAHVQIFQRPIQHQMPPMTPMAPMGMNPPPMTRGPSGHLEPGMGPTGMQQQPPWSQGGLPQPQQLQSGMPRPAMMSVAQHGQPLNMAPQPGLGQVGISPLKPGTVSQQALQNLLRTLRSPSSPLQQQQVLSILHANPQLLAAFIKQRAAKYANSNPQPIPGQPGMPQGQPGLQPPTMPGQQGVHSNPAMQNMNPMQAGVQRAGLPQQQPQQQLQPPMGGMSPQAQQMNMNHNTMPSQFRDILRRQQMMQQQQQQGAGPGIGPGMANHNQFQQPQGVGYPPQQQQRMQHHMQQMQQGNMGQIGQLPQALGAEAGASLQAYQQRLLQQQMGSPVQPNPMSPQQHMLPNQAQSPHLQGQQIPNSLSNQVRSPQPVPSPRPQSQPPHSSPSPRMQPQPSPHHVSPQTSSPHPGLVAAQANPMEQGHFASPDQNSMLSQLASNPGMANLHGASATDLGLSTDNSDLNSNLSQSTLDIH
UniProt Q92793: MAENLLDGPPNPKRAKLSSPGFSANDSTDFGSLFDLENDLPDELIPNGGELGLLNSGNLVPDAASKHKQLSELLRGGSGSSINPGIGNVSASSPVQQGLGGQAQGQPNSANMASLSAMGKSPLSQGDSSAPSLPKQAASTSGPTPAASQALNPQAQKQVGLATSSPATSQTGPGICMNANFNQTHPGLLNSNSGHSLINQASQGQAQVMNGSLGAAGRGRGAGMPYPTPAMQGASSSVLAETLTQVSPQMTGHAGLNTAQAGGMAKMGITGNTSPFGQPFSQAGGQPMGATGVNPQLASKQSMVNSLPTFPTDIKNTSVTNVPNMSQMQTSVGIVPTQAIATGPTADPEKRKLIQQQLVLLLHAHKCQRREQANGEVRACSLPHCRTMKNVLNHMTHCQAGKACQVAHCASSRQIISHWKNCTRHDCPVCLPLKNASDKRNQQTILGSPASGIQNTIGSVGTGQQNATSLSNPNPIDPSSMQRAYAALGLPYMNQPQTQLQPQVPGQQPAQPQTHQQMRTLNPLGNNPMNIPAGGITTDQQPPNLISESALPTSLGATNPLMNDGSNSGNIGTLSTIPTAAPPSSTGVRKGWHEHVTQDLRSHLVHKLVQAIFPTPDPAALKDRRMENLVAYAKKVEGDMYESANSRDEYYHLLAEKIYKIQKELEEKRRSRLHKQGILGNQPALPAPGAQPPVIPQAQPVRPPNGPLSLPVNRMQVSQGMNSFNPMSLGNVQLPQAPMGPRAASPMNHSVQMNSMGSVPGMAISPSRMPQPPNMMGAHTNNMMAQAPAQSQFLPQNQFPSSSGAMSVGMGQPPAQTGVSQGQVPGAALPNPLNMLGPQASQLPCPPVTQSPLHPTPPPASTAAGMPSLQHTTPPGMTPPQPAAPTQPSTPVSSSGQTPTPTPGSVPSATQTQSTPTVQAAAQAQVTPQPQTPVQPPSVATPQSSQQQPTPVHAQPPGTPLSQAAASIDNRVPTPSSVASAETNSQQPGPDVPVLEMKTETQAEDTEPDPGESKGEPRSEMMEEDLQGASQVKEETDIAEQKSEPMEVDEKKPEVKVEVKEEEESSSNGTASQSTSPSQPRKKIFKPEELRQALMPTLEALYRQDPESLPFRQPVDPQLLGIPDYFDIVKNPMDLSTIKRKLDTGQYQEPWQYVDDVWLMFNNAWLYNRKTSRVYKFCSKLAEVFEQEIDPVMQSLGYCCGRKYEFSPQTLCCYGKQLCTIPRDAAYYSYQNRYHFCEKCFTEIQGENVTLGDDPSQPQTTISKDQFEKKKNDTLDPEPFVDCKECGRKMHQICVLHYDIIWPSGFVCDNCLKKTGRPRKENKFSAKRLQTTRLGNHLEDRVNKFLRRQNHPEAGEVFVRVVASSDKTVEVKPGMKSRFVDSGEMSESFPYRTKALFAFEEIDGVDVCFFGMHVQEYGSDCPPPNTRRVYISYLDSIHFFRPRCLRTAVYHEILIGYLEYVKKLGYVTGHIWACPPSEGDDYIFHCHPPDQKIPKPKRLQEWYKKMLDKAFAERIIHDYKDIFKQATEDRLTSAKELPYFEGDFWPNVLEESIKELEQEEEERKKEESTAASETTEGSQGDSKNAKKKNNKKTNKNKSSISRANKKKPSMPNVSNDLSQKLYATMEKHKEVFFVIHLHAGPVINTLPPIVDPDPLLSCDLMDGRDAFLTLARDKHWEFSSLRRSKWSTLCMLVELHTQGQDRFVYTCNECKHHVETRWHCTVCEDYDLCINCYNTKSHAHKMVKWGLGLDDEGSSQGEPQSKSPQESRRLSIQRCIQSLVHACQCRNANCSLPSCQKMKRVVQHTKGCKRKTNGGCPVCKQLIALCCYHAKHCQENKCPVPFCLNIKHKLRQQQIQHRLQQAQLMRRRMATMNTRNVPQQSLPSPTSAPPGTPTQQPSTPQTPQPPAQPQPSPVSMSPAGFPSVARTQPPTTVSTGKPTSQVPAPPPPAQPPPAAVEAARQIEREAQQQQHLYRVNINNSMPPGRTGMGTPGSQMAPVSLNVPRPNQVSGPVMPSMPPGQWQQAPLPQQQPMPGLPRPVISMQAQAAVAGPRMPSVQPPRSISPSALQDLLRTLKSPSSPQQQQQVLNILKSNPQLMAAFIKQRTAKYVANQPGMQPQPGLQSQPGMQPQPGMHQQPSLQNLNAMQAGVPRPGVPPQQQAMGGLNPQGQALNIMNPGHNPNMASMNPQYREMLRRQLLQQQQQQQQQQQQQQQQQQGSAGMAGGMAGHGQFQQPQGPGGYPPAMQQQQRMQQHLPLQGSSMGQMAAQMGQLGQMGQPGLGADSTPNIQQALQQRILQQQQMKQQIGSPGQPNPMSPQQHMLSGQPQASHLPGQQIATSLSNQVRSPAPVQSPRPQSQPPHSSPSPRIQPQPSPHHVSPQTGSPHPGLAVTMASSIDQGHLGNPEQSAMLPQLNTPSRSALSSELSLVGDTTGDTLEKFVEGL

How the values were obtained:
[1] = target: T1, iASPP-V5 (transiently overexpressed) (UniProt Q8WUF5); experiment: co-IP; HCT116 transiently transfected with iASPP-V5 or empty vector, 20 uM cisplatin for 24 h; immunoprecipitation with anti-V5 antibody, immunoblot of endogenous CBP
T1 sequence: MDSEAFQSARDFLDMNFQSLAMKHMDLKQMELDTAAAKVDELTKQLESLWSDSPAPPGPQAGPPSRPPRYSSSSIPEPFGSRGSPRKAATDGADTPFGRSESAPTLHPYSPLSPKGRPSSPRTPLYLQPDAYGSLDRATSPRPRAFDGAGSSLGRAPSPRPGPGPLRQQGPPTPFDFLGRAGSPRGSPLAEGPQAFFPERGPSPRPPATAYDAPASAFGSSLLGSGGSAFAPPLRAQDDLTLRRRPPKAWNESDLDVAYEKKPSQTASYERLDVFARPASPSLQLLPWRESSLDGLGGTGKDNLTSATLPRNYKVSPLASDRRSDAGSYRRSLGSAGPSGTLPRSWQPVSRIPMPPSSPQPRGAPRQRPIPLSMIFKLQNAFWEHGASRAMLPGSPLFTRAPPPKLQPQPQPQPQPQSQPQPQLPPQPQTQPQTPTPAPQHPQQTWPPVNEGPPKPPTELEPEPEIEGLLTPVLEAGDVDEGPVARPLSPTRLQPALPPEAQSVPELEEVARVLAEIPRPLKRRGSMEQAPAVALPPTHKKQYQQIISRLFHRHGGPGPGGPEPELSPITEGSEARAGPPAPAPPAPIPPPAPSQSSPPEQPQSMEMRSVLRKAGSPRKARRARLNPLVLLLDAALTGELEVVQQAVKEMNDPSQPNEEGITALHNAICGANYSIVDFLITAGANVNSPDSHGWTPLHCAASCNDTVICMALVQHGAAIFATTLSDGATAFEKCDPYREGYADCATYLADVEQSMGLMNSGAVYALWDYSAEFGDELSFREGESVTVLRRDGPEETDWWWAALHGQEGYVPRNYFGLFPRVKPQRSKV

[2] = target: p300 (histone acetyltransferase), endogenous (human (endogenous in HCT116)) (UniProt Q09472); experiment: co-IP; endogenous proteins; lysates of HCT116 cells treated with 20 uM cisplatin for 16 h; control reaction with IgG antibody
[3] = target: p300 (histone acetyltransferase), endogenous (human (endogenous in HCT116)) (UniProt Q09472); experiment: condition: only untreated cells (normal growth conditions, no cisplatin); co-IP; endogenous proteins; lysates of untreated HCT116 cells (normal growth conditions); control reaction with IgG antibody
[4] = substrate: CBP (CREB-binding protein), endogenous (human (endogenous in HCT116)) (UniProt Q92793); experiment: co-IP; HCT116 transiently transfected with BRMS1-GFP alone or with iASPP-V5; 20 uM cisplatin for 16 h, 20 uM MG132 for the last 4 h; immunoprecipitation with anti-CBP antibody or isotype-matched IgG, overnight at 4 C

CBP (CREB-binding protein), endogenous (from UniProt Q92793 1-2442)
binding [1]: binds

B1: iASPP (inhibitory apoptosis stimulating protein of p53), endogenous (protein, UniProt Q8WUF5 1-828)
chain: T1 sequence
binding [2]: binds | binding [3]: no binding

B2: TAp73, endogenous (protein, UniProt O15350 1-636)
chain: MAQSTATSPDGGTTFEHLWSSLEPDSTYFDLPQSSRGNNEVVGGTDSSMDVFHLEGMTTSVMAQFNLLSSTMDQMSSRAASASPYTPEHAASVPTHSPYAQPSSTFDTMSPAPVIPSNTDYPGPHHFEVTFQQSSTAKSATWTYSPLLKKLYCQIAKTCPIQIKVSTPPPPGTAIRAMPVYKKAEHVTDVVKRCPNHELGRDFNEGQSAPASHLIRVEGNNLSQYVDDPVTGRQSVVVPYEPPQVGTEFTTILYNFMCNSSCVGGMNRRPILIIITLEMRDGQVLGRRSFEGRICACPGRDRKADEDHYREQQALNESSAKNGAASKRAFKQSPPAVPALGAGVKKRRHGDEDTYYLQVRGRENFEILMKLKESLELMELVPQPLVDSYRQQQQLLQRPSHLQPPSYGPVLSPMNKVHGGMNKLPSVNQLVGQPPPHSSAATPNLGPVGPGMLNNHGHAVPANGEMSSSHSAQSMVSGSHCTPPPPYHADPSLVSFLTGLGCPNCIEYFTSQGLQSIYHLQNLTIEDLGALKIPEQYRMTIWRGLQDLKQGHDYSTAQQLLRSSNAATISIGGSGELQRQRVMEAVHFRVRHTITIPNRGGPGGGPDEWADFGFDLPDCKARKQPIKEEFTEAEIH
binding [2]: binds

B3: BRMS1-GFP (protein, UniProt Q9HCU9 1-246)
chain: MPVQPPSKDTEEMEAEGDSAAEMNGEEEESEEERSGSQTESEEESSEMDDEDYERRRSECVSEMLDLEKQFSELKEKLFRERLSQLRLRLEEVGAERAPEYTEPLGGLQRSLKIRIQVAGIYKGFCLDVIRNKYECELQGAKQHLESEKLLLYDTLQGELQERIQRLEEDRQSLDLSSEWWDDKLHARGSSRSWDSLPPSKRKKAPLVSGPYIVYMLQEIDILEDWTAIKKARAAVSPQKRKSDGP
binding [4]: binds
